Laboratory results from publication PMC12781078.
No constants are given. Whether binding was seen depends on the method and setting. Binding seen in cells or lysates may run through a third protein. Some results given as binding are weak or reduced against the parent protein; the word gives no strength. For some of these results: Tags and fused reporters may be left off the sequences shown. Each block holds one binder with its values, some of them ahead of it.

Key:
[1] = biological target: T1, DCBLD1-Flag (discoidin, CUB and LCCL domain containing 1, full length) (UniProt Q8N8Z6); test: co-IP; DCBLD1 with DCBLD2 (Figure S4B); cells and tags not given
T1 sequence: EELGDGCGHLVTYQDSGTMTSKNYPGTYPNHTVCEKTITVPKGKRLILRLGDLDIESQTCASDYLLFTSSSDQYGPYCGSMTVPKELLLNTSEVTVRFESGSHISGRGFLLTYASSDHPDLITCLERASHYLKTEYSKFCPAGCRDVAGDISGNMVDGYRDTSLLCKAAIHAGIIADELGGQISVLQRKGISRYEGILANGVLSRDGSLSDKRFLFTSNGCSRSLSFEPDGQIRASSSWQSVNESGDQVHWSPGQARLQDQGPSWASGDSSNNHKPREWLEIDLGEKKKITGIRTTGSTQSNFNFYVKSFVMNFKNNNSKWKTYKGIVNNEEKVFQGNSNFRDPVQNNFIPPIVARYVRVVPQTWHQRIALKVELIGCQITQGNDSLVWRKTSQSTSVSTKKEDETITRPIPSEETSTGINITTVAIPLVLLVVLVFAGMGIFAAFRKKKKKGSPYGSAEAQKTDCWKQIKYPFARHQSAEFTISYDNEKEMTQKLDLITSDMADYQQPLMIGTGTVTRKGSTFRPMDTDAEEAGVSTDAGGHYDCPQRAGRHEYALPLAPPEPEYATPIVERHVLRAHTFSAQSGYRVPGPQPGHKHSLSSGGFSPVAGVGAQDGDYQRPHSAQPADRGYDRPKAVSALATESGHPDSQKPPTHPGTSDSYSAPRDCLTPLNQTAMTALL

[2] = biological target: EGFR-HA (full length) (UniProt P00533); test: co-IP; competition: HEK293T cells co-transfected with EGFR-HA, PTP1B-Flag and increasing DCBLD1-Flag, or with EGFR-HA, DCBLD1-Flag and increasing PTP1B-Flag; IP with HA antibodies, blot with HA and Flag antibodies
[3] = biological target: EGFR-HA (full length) (UniProt P00533); test: co-IP; HEK-293T cells transfected with 3 ug of each plasmid for 48 h; lysates in WB/IP lysis buffer incubated with anti-Flag or anti-HA beads overnight at 4 °C; Western blot
[4] = biological target: EGFR, endogenous in A549 and H1299 cells (human (endogenous in A549 and H1299)) (UniProt P00533); test: co-IP; endogenous proteins; A549 and H1299 lysates incubated with 2 ug anti-EGFR, anti-DCBLD1 or normal IgG overnight at 4 °C, captured with Protein A/G beads; Western blot

binding [1]: no binding
B1: DCBLD2 (full length, tagged) (protein, UniProt Q96PD2 67-775)
chain: QQGDGCGHTVLGPESGTLTSINYPQTYPNSTVCEWEIRVKMGERVRIKFGDFDIEDSDSCHFNYLRIYNGIGVSRTEIGKYCGLGLQMNHSIESKGNEITLLFMSGIHVSGRGFLASYSVIDKQDLITCLDTASNFLEPEFSKYCPAGCLLPFAEISGTIPHGYRDSSPLCMAGVHAGVVSNTLGGQISVVISKGIPYYESSLANNVTSVVGHLSTSLFTFKTSGCYGTLGMESGVIADPQITASSVLEWTDHTGQENSWKPKKARLKKPGPPWAAFATDEYQWLQIDLNKEKKITGIITTGSTMVEHNYYVSAYRILYSDDGQKWTVYREPGVEQDKIFQGNKDYHQDVRNNFLPPIIARFIRVNPTQWQQKIAMKMELLGCQFIPKGRPPKLTQPPPPRNSNDLKNTTAPPKIAKGRAPKFTQPLQPRSSNEFPAQTEQTTASPDIRNTTVTPNVTKDVALAAVLVPVLVMVLTTLILILVCAWHWRNRKKKTEGTYDLPYWDRAGWWKGMKQFLPAKAVDHEETPVRYSSSEVNHLSPREVTTVLQADSAEYAQPLVGGIVGTLHQRSTFKPEEGKEAGYADLDPYNSPGQEVYHAYAEPLPITGPEYATPIIMDMSGHPTTSVGQPSTSTFKATGNQPPPLVGTYNTLLSRTDSCSSAQAQYDTPKAGKPGLPAPDELVYQVPQSTQEVSGAGRDGECDVFKEIL

binding [2]: binds
binding [3]: binds
B2: DCBLD1-Flag (discoidin, CUB and LCCL domain containing 1, full length) (protein, UniProt Q8N8Z6 35-715)
chain: T1 sequence

binding [4]: binds
B3: DCBLD1, endogenous in A549 and H1299 cells (protein, UniProt Q8N8Z6 35-715)
chain: T1 sequence
